PubChem BioAssay AID1508597 – Cure First – 2020
Shown is a random part of the about 2,100 reagents, under one of the conditions tested. 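Calls flag viability under 80% in either arm, not effects specific to rucaparib; the reference for percent is not stated.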 Unmarked entries are inactive. The record does not give: the 100% reference.

Aim: 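Survival screen with siRNA in ovarian cancer cells derived from patients, with or without rucaparib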 (primary screen)
System: human ovarian carcinoma lines grown from tumours: OCI-P5x (papillary serous) and OCI-C5x (clear cell)
Knock-down reagent: siRNA pool against human genes, 1.25 pmol siRNA per well
Timing: 72 h or 96 h, depending on the cell culture
Treatment: rucaparib 20 µM (about IC30) or vehicle, present until read-out
Rucaparib or vehicle: Vehicle
Cell line: OCI-C5x (clear cell)
Measurement: 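ATP luminescence measured at 72 or 96 h according to the culture, then normalised and expressed as percent viability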
Reading the numbers: viability, normalised: higher = more viable cells remaining
Hit rule: 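a well counts as a hit if its normalised viability is under 80 percent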
Calls: active = viability under 80%; inactive = viability 80% or more

| Gene | technical replicate | viability, normalised (%) |
| --- | --- | --- |
| TADA1 | 1 | 40.7 (active) |
| TADA1 | 2 | 51.6 (active) |
| TADA1 | 3 | 54.4 (active) |
| SPTB | 1 | 43.6 (active) |
| SPTB | 2 | 53.2 (active) |
| SPTB | 3 | 60 (active) |
| ARRB1 | 1 | 49.4 (active) |
| ARRB1 | 2 | 48.4 (active) |
| ARRB1 | 3 | 68.9 (active) |

3 of these entries in another layout:
Gene,technical replicate,"viability, normalised (%)"
SPTB,2,53.2 (active)
SPTB,3,60 (active)
ARRB1,1,49.4 (active)

Next reagents follow:
| Gene | technical replicate | viability, normalised (%) |
| --- | --- | --- |
| RP2 | 1 | 27.6 (active) |
| RP2 | 2 | 39.7 (active) |
| RP2 | 3 | 31.3 (active) |
| PADI4 | 1 | 52.9 (active) |
| PADI4 | 2 | 51.2 (active) |
| PADI4 | 3 | 52.7 (active) |
| MAPKAPK2 | 1 | 61 (active) |
| MAPKAPK2 | 2 | 47 (active) |
| MAPKAPK2 | 3 | 40.2 (active) |
| RDM1 | 1 | 49.2 (active) |
| RDM1 | 2 | 42.9 (active) |
| RDM1 | 3 | 49.9 (active) |
| SLC22A12 | 1 | 41.3 (active) |
| SLC22A12 | 2 | 34.1 (active) |
| SLC22A12 | 3 | 49.7 (active) |
